Data: US20120088818
For part of these data: Negatives hold for the conditions tested.

Amino acid sequences for entries named in this document (tags omitted). Residues count along the entry.
UniProt P42260, 32-908: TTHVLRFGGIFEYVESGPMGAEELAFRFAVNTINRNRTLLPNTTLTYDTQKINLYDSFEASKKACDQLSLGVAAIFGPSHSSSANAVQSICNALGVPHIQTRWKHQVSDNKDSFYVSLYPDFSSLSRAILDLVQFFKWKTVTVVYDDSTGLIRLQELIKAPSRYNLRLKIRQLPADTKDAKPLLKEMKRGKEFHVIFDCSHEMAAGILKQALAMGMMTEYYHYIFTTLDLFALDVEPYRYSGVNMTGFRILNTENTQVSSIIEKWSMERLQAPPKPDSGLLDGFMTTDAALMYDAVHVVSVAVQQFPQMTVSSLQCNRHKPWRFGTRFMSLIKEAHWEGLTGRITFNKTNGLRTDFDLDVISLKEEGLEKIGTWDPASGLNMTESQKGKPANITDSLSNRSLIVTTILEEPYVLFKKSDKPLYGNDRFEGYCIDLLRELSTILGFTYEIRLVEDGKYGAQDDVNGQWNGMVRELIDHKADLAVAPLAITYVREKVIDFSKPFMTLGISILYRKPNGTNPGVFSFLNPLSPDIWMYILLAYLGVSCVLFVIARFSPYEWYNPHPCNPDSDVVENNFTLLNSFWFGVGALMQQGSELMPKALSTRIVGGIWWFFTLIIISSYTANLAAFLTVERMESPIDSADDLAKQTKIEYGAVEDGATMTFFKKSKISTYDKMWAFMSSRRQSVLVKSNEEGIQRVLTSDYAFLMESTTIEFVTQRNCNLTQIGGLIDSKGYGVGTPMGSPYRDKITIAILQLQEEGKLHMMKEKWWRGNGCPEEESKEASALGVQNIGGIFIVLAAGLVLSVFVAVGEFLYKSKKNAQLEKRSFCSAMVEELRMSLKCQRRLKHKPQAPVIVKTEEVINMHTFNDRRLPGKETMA
UniProt P22756, 31-949: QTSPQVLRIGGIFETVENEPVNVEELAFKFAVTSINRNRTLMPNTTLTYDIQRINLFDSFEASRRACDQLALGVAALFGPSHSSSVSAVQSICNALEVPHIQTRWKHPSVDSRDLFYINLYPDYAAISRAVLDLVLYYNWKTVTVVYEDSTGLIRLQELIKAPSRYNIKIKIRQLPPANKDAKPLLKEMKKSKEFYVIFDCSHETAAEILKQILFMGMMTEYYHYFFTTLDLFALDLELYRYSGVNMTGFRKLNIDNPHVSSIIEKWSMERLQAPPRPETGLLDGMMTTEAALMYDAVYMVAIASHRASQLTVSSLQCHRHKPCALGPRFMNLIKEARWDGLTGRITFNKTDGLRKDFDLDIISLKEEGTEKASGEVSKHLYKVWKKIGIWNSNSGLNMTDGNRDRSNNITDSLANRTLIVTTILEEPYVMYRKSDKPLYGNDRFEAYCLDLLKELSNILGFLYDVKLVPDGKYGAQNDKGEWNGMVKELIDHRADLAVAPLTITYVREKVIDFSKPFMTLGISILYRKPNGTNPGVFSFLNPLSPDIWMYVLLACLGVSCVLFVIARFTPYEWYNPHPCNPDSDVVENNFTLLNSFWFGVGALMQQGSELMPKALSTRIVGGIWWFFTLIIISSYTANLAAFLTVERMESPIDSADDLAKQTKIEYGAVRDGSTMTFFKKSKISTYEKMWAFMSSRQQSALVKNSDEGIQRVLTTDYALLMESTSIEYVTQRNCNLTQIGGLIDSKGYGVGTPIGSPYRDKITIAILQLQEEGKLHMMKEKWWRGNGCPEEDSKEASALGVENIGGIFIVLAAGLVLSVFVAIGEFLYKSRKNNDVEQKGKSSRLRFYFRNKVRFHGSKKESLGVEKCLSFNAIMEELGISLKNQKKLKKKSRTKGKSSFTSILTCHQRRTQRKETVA
UniProt P19492, 23-888: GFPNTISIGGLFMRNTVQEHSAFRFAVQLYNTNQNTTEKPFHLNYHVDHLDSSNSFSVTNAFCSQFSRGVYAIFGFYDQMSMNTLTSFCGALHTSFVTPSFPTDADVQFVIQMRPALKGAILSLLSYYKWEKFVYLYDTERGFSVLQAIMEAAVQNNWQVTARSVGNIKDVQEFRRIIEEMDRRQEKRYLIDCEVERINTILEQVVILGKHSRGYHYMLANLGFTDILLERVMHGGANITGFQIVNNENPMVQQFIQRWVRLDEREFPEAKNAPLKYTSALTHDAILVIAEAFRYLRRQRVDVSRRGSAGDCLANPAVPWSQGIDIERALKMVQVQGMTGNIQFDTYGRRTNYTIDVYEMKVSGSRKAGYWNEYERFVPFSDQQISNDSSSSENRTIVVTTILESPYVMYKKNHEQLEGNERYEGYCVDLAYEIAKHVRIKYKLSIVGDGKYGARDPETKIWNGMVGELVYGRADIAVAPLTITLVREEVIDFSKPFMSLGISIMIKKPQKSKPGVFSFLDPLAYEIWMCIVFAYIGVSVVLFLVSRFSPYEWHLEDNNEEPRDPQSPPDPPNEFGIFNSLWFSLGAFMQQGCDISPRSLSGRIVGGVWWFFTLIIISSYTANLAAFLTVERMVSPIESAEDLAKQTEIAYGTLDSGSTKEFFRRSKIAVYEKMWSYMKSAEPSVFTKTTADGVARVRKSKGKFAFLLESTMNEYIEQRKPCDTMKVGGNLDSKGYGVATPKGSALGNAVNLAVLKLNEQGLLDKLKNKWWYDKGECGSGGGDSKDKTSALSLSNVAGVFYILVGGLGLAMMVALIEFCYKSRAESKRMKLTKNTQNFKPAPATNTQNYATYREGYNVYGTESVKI
UniProt P19493, 21-902: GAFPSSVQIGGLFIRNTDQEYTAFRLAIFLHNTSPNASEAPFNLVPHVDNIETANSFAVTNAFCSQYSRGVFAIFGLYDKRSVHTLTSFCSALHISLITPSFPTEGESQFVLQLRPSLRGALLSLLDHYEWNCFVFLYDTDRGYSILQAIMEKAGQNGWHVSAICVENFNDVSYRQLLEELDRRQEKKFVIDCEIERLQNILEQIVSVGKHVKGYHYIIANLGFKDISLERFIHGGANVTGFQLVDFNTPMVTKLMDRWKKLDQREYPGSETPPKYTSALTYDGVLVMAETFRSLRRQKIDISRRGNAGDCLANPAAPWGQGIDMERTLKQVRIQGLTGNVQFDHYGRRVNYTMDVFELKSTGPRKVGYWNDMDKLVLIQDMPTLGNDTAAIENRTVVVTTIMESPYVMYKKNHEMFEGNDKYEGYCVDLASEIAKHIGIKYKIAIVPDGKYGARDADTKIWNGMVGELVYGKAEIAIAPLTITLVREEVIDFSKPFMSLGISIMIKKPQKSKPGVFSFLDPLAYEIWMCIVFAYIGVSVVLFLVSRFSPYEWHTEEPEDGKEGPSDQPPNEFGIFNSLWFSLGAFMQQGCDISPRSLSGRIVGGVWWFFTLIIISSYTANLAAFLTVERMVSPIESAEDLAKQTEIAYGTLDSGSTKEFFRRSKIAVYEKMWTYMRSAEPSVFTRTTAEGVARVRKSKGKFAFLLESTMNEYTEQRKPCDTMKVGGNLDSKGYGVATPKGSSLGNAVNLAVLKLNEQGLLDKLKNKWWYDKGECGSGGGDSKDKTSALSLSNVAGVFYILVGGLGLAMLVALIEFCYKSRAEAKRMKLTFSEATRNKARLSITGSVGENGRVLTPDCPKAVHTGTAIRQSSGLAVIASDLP
UniProt P19490, 19-907: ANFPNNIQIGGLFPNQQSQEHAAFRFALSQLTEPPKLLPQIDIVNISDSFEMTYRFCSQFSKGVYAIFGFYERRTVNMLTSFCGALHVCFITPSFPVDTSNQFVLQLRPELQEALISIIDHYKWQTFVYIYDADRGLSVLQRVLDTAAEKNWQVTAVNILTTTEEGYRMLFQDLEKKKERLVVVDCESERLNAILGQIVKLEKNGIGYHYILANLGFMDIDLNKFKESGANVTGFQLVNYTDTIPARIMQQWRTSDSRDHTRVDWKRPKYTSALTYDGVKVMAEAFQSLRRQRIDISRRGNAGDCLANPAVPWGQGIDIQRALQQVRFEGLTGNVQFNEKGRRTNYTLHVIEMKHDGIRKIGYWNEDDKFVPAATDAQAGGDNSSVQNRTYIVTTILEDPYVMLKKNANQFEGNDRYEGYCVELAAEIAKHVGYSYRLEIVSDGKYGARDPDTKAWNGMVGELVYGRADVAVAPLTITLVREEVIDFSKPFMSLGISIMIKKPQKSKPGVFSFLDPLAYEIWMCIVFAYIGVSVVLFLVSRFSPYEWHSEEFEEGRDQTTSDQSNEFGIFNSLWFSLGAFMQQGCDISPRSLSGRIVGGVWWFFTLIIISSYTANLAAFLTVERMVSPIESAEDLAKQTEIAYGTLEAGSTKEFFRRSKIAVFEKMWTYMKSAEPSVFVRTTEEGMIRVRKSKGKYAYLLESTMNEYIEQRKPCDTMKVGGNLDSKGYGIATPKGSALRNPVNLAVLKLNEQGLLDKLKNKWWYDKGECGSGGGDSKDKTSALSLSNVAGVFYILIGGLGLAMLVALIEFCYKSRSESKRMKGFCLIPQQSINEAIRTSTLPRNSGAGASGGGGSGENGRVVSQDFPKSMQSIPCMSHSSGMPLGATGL

How the values were obtained:
Test in all cases: activity in cells
[1] = molecular target: GluK2 kainate receptor (Rattus norvegicus) (UniProt P42260); conditions: no inhibition of whole-cell current; protein on the cell surface; variant of AG1407 (full length, 100 nt); dose not given here
GluK1 kainate receptor = GluK1 kainate receptor (UniProt P22756); conditions: no inhibition of whole-cell current; protein on the cell surface; variant of AG1407 (full length, 100 nt); dose not given here
[2] = molecular target: GluA3 AMPA receptor (Rattus norvegicus) (UniProt P19492); conditions: whole-cell current, open-channel conformation inhibited; protein on the cell surface; variant of AG1407 (full length, 100 nt); dose not given here
GluA4 AMPA receptor = GluA4 AMPA receptor (UniProt P19493); conditions: whole-cell current, open-channel conformation inhibited; protein on the cell surface; variant of AG1407 (full length, 100 nt); dose not given here
[3] = molecular target: GluA1 AMPA receptor (Rattus norvegicus) (UniProt P19490); conditions: whole-cell current, open-channel conformation inhibited; protein on the cell surface; variant of AG1407 (full length, 100 nt); dose not given here
[4] = system: GluN1/GluN2A NMDA receptor; conditions: no inhibition of whole-cell current; 2 uM glycine; protein on the cell surface; variant of AG1407 (full length, 100 nt)

“GGGAGAUUGUGAAGCGUAGGCUCGAGUUUGUCCCGCGAGCCAAAGAUUCCAGACCC [AG56]” was tested, and the “functional effect of the aptamer” value [1] was “not active”, the “functional effect of the aptamer” value (GluK1 kainate receptor) was “not active” and the “functional effect of the aptamer” value [2] was “active”. The “functional effect of the aptamer” value (GluA4 AMPA receptor) was “active”, the “functional effect of the aptamer” value [3] was “active” and the “functional effect of the aptamer” value [4] was “not active”.
